Data: patent US20150239933A1

Assays:
[1] = biological target: Porcine tubulin dimer (porcine); assay: SPR, 60 sec injection over immobilised tubulin dimer (one of two injections; the other gave 0.4 RU)
[2] = biological target: Porcine tubulin dimer (porcine); assay: SPR (Biacore T200), tubulin dimer amine-coupled to a CM5 chip, peptide as analyte at 625 nM to 20 µM

With RAKWNNTLKQIASK [Helix-B peptide] as the binder, how does the binding [1] read?
The binding was “no binding (tested: 10 uM)”.

And the binding [2]?
The binding was “no binding (tested: 20 µM)”.

No constants are given. Whether binding was seen depends on the method and setting.
